Part of at least one peptide drawing is inferred or uncertain, most often the ends. Non-standard residues stand in square brackets, D forms with d. Residues, ends and D or L forms follow the SMILES beside them.
Tested on: lymphocytes (T-cells)
Test: PHA-stimulation test (lymphocyte transformation test), incorporation of radioactive thymidine
Assay type: cell-based
Details: test substance 1 μg/ml; for Stimulation index SI, X ± SEM: mean over PHA concentrations 10, 8 and 4 μg/ml

N=C(N)NCCC[C@H](NC(=O)[C@H](N)CCCCN)C(=O)N[C@H](Cc1ccccc1)C(=O)N[C@@H](Cc1c[nH]c2ccccc12)C(=O)N1CCC[C@H]1C(=O)O [D, D-Lys-Arg-D-Phe-Trp-Pro-OH] (H-[dK]R[dF]WP-OH)
Incorporation of 3H-thymidine (cpm) (PHA concentration 4 μg/ml): 4415 to 4999 cpm | Stimulation index SI (PHA concentration 4 μg/ml): 1.13 | Incorporation of 3H-thymidine (cpm) (PHA concentration 8 μg/ml): 5185 to 5924 cpm | Stimulation index SI (PHA concentration 8 μg/ml): 1.14 | Incorporation of 3H-thymidine (cpm) (PHA concentration 10 μg/ml): 5038 to 8713 cpm | Stimulation index SI (PHA concentration 10 μg/ml): 1.73 | Stimulation index SI, X ± SEM: 1.33 ± 0.2

N=C(N)NCCC[C@H](N)C(=O)N[C@@H](CCCCN)C(=O)N[C@@H](Cc1ccc(O)cc1)C(=O)N[C@@H](Cc1ccccc1)C(=O)N[C@@H](CCC(N)=O)C(=O)O [E, Arg-Lys-Tyr-Phe-Gln-OH] (H-RKYFQ-OH)
Incorporation of 3H-thymidine (cpm) (PHA concentration 4 μg/ml): 8105 to 9072 cpm | Stimulation index SI (PHA concentration 4 μg/ml): 1.12 | Incorporation of 3H-thymidine (cpm) (PHA concentration 8 μg/ml): 12693 to 13148 cpm | Stimulation index SI (PHA concentration 8 μg/ml): 1.12 | Incorporation of 3H-thymidine (cpm) (PHA concentration 10 μg/ml): 12650 to 15231 cpm | Stimulation index SI (PHA concentration 10 μg/ml): 1.20 | Stimulation index SI, X ± SEM: 1.12 ± 0.05

CCOC(=O)CNC(=O)[C@H](Cc1ccc(O)cc1)NC(=O)[C@H](Cc1ccc(O)cc1)NC(=O)[C@H](CCCNC(=N)N)NC(=O)[C@@H](N)CCCCN [A, Lys-Arg-Tyr-Tyr-Gly-OEt] (H-KRYYG-OEt)
Incorporation of 3H-thymidine (cpm) (PHA concentration 4 μg/ml): 2727 to 3947 cpm | Stimulation index SI (PHA concentration 4 μg/ml): 1.45 | Incorporation of 3H-thymidine (cpm) (PHA concentration 8 μg/ml): 11517 to 14031 cpm | Stimulation index SI (PHA concentration 8 μg/ml): 1.22 | Incorporation of 3H-thymidine (cpm) (PHA concentration 10 μg/ml): 14356 to 18388 cpm | Stimulation index SI (PHA concentration 10 μg/ml): 1.28 | Stimulation index SI, X ± SEM: 1.32 ± 0.07

N=C(N)NCCC[C@H](NC(=O)[C@H](Cc1ccccc1)NC(=O)[C@H](Cc1ccc(O)cc1)NC(=O)[C@H](CCCCN)NC(=O)[C@@H](N)CCCCN)C(=O)O [B, Lys-Lys-Tyr-Phe-Arg-OH] (H-KKYFR-OH)
Incorporation of 3H-thymidine (cpm) (PHA concentration 4 μg/ml): 5499 to 6073 cpm | Stimulation index SI (PHA concentration 4 μg/ml): 1.10 | Incorporation of 3H-thymidine (cpm) (PHA concentration 8 μg/ml): 5300 to 5801 cpm | Stimulation index SI (PHA concentration 8 μg/ml): 1.09 | Incorporation of 3H-thymidine (cpm) (PHA concentration 10 μg/ml): 19848 to 25888 cpm | Stimulation index SI (PHA concentration 10 μg/ml): 1.30 | Stimulation index SI, X ± SEM: 1.16 ± 0.05
